These are yes or no findings as the source states them, for the method shown. Some binding calls cover weakened binding; strength is not graded here. Sequences can lack the tags named with a protein.
Legend:
Test in all cases: pull-down; FLAG-tagged proteins from transfected HEK 293 cells held on anti-FLAG M2 agarose after extensive washing; mixed with GST-DUSP5 WT (2 μg) in 1 ml PTP reaction buffer (100 mM Tris-HCl pH 7.5, 40 mM NaCl, 1 mM DTT), 3 h at 4 °C; beads washed 5 times; immunoblot; both purified
FLAG-tagged IκBα = FLAG-tagged IκBα (UniProt P25963)
FLAG-tagged IKKβ = biological target: T1, FLAG-tagged IKKβ (UniProt O14920)
T1 sequence: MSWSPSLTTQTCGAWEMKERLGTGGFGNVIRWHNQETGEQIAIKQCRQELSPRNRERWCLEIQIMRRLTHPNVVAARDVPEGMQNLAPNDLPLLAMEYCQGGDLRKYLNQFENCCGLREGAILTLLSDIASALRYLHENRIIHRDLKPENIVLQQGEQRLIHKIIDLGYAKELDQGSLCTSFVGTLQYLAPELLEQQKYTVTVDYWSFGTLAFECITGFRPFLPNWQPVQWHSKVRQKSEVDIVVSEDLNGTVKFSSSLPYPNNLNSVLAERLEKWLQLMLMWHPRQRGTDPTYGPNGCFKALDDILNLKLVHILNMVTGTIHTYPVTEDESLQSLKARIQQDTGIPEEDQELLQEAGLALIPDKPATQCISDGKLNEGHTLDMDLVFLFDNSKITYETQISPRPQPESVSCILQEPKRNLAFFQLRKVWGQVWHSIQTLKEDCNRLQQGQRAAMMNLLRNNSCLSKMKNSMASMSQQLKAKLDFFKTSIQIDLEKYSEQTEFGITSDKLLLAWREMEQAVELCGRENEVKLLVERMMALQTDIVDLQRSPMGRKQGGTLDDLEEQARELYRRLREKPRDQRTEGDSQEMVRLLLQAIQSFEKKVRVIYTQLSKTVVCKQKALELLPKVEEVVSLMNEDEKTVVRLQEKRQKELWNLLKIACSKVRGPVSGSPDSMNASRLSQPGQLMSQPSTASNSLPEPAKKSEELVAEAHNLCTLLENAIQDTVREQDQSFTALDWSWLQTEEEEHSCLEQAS

Protein sequences, listed by entry. Tags and fused reporters are not part of them.
UniProt P25963: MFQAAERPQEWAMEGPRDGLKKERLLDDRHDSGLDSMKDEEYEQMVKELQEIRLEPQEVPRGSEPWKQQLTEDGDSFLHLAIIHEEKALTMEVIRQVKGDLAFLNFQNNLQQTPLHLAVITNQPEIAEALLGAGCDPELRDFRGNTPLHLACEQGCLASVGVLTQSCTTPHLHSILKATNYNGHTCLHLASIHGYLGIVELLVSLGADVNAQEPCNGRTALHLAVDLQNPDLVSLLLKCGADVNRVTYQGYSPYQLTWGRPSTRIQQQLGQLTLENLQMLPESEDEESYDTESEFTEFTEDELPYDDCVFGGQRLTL

FLAG-tagged TAK1 = biological target: T2, FLAG-tagged TAK1 (UniProt O43318)
T2 sequence: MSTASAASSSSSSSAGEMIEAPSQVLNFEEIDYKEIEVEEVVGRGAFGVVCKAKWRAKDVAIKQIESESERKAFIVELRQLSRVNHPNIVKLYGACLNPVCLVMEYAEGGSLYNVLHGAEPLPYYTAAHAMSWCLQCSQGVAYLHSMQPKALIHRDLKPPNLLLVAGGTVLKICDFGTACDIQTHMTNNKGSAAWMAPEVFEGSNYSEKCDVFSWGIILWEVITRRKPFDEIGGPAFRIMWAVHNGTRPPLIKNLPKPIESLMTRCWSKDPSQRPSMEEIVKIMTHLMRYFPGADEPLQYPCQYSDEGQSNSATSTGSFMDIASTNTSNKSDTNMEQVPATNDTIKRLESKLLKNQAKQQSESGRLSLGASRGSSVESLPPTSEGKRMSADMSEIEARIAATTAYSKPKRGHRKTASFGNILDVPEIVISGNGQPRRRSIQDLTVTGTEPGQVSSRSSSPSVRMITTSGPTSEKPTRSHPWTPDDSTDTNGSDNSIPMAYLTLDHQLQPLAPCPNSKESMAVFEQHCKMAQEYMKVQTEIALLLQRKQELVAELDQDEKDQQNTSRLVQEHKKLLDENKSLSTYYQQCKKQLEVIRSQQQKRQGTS

FLAG-tagged IKKα = biological target: T3, FLAG-tagged IKKα (UniProt O15111)
T3 sequence: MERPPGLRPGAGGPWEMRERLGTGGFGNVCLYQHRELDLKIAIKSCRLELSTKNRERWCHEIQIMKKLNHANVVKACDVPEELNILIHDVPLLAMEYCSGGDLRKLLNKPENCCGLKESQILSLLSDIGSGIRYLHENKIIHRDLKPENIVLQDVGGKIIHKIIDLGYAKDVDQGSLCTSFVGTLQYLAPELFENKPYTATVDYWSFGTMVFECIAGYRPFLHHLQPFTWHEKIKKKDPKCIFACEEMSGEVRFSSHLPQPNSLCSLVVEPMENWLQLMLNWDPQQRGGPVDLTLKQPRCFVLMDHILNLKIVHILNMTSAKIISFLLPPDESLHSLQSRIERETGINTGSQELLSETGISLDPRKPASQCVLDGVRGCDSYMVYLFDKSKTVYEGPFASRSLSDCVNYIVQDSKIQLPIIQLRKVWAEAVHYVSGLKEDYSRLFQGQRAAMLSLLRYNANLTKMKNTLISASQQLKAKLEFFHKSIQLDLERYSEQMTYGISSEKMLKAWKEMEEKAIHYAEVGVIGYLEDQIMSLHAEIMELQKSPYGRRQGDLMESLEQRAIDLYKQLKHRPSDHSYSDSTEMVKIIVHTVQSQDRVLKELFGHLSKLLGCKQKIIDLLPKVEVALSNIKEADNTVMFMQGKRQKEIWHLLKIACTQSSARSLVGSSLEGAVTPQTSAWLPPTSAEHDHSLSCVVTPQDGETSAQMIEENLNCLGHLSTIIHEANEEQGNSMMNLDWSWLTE

binding (FLAG-tagged IKKβ): binds | binding (FLAG-tagged TAK1): binds | binding (FLAG-tagged IKKα): binds
B1: GST-DUSP5 WT (recombinant) (enzyme, UniProt Q16690 1-384)
chain: MKVTSLDGRQLRKMLRKEAAARCVVLDCRPYLAFAASNVRGSLNVNLNSVVLRRARGGAVSARYVLPDEAARARLLQEGGGGVAAVVVLDQGSRHWQKLREESAARVVLTSLLACLPAGPRVYFLKGGYETFYSEYPECCVDVKPISQEKIESERALISQCGKPVVNVSYRPAYDQGGPVEILPFLYLGSAYHASKCEFLANLHITALLNVSRRTSEACATHLHYKWIPVEDSHTADISSHFQEAIDFIDCVREKGGKVLVHCEAGISRSPTICMAYLMKTKQFRLKEAFDYIKQRRSMVSPNFGFMGQLLQYESEILPSTPNPQPPSCQGEAAGSSLIGHLQTLSPDMQGAYCTFPASVLAPVPTHSTVSELSRSPVATATSC
binding (FLAG-tagged IκBα): no binding (tested: 2 μg GST-DUSP5 in 1 ml)

From PMC5725455
